This is one part of the list.
B1: il10ra_site1_sap_14_mot_HHH_b1_02492_000000051_0001_1_21_H_._HHH_b2_05983_0001_0000300015_0000001_0_0001_af2pred_dldesign_0_af2pred (protein)
chain: SSSSDPEAEIKRLYERALALLEAGDEERALELLRELTRLAWETKDPEAIKKALELADRLLESSSS
B2: il10ra_site1_sap_19_mot_HHH_b1_03314_af2_000000278_0001_42_55_H_._HHH_b1_01737_af2_0001_0000400013_0000001_0_0001_af2pred_0001 (protein)
chain: SSSSSEDEERIRELLEEAERALEEGDEEEARKLIAEAYLIAAKNENEEIWEQVLEVFQRLNSSSS
B3: il10ra_site1_normal_mot_e1dd4851c59bc1cdde016f988f6856bd_0001_1_000000200_0001_16_31_H_._HEEHE_2606_0001_0000400023_0000001_1_af2pred_0001 (protein)
chain: TEAEEFVREVEAMAQVANVPSVEVEVHDGRVEVTVEGNDRAAREFELMFRFLALVRGIDVEVEVE
B4: il10ra_site1_normal_mot_HHH_b2_06857_af2_000000179_0001_42_54_H_._HHH_b2_01688_af2_0001_0000100001_0000001_1 (protein)
chain: SSSSSELVQEVYRLLREAAELHSEGNEEEAEEVLEEARRLAEEANNVLLAFQVRFLLRLIGSSSS
B5: il10ra_site1_sap_23_mot_HHH_b1_05052_000000015_0001_1_19_H_._HHH_b2_05916_af2_0001_0000100003_0000001_0_0001 (protein)
chain: SSSSSDKEELAEALHRMIEQALEWGDPESAEMLILALEMLAKELNDPELEELVKELEELLSSSSS
B6: il10ra_site1_normal_mot_39a7b8d0c4c3fc04bafbda6ce6101d3a_0001_1_af2_000000014_0001_34_48_H_._190733a505cf72e9f5bb281964386224_0001_1_af2_0001_0000700024_0000001 … (protein)
chain: DEVEEEIKRVAEEQGDETVAHAVKAIEENLERGLIPPELALLQLLFLAQQLGDPEVIRELRELRK
B7: il10ra_site1_sap_16_mot_HHH_b1_06048_000000117_0001_42_56_H_._HHH_b1_06438_0001_0000600027_0000002_1_0001 (protein)
chain: SSSSNEEMARELVRAALRIARQVPDKETLKHALIAAQLLAEETNDPELEELAKEIEELEESSSSS
B8: il10ra_site1_normal_mot_HHH_b2_02337_000000026_0001_38_52_H_._HHH_b1_06658_0001_0000100013_0000001_0 (protein)
chain: SSSSSDREEEIEELLRQAERLAEEGNPEEATRLLAEAVRLIFELGDEELLRELWELVRRLSSSSS
B9: il10ra_site1_sap_22_mot_HHH_b2_06812_af2_000000299_0001_41_56_H_._44e4ab65238a46b1c89eac5211a0a491_0001_1_0001_0000400022_0000001_0_0001_af2pred_0001 (protein)
chain: SSSSDVEEEIEELLREAKKLAENGNPEEASYLITRAFALATQNRNEELRREVQELAIEETESSSS
B10: il10ra_site1_normal_mot_HHH_b2_01310_000000089_0001_41_55_H_._ems_p1-15H-GBL-16H-GABBL-16H_0175_0001_0001_0002_af2_0001_0000400025_0000001_0_af2pred_0001 (protein)
chain: SSSSSSVIHLAREALKFALRKGDQEGFREILEIFRAFIRGEISEEEASERLEEILRELRSSSSSS
B11: il10ra_site1_sap_23_mot_HHH_b1_02809_af2_000000277_0001_40_57_H_._HHH_b1_02459_0001_0000100004_0000001_0_0001 (protein)
chain: SSSSSSDERKEVYELIREAMEIDDEEERRQVLEEALRLAEELGDRVLLINARYALERTSSSSSSS
B12: il10ra_site1_normal_mot_HHH_b2_00277_af2_000000172_0001_1_17_H_._HHH_b2_01341_0001_0000400021_0000002_0_af2pred_0001 (protein)
chain: SSSSDVEEEVRRLLEEAEEARERGNPEEAHELLHEAAALAARARDLELAYLVVEVYAKINSSSSS
B13: il10ra_site1_normal_mot_HHH_b1_06994_000000193_0001_40_55_H_._HHH_b1_06996_0001_0000100003_0000001_0 (protein)
chain: SSSSDQEEELARAALRLVEQIIRAGNEEDARRFLRAARRAVELLGDDEILRKLEELEEELSSSSS
B14: il10ra_site1_normal_mot_HHH_b1_04163_000000176_0001_1_18_H_._HHH_b1_02443_af2_0001_0000200007_0000002_0 (protein)
chain: SSSSSDEELEELLEKLEELLEKGDEQKLAQVLTRVLELAAELNDEEARELFHKVAEAYFSSSSSS
B15: il10ra_site1_sap_11_mot_1c3c3e46dde0d4e4be3ec3dd9add6289_0001_000000096_0001_34_50_H_._HHH_b2_04467_0001_0000100002_0000002_0_0001 (protein)
chain: SSSSSNEEVQEAQELMREANEIEDPEEARRVAEEAVEILEEAGNRVALFAAELILRDLRSSSSSS
B16: il10ra_site1_normal_mot_HHH_b1_08411_af2_000000053_0001_1_20_H_._HHH_b1_03852_0001_0000300027_0000001_0 (protein)
chain: SSSSQEAFEFLRRIIEEVLELFREGDPEEAERLLEEAREYLQERGNELFVISLEQAEKAIRSSSS
B17: il10ra_site1_sap_21_mot_HHH_b1_05056_000000217_0001_1_20_H_._HHH_b1_03969_0001_0000300035_0000001_0_0001 (protein)
chain: SSSSSEEAWELLREALELRANGNPEEAQEVVEEAEEIAKELGDRAVLFAIEHLIRDLREILSSSS
B18: il10ra_site1_normal_mot_HHH_b2_00984_000000042_0001_1_20_H_._HHH_b1_06735_0001_0000100004_0000002_0 (protein)
chain: SSSSSDEELEERIRELLEELEEITDPKEFSRVAVEALRLIYELQDPELLQALWRIIKEWSSSSSS
B19: il10ra_site1_sap_18_mot_HHH_b1_00566_000000151_0001_22_39_H_._HHH_b1_01048_0001_0000300026_0000001_0_0001 (protein)
chain: SSSSDNRELFELSRKAAELLSNGNPEEAEKLLERAQEIAEEANNDVLLFIIRYVLRIVEENSSSS
B20: il10ra_site1_sap_20_mot_HHH_b2_06507_af2_000000245_0001_1_17_H_._HHH_b2_04638_af2_0001_0000100003_0000001_0_0001_af2pred_0001 (protein)
chain: SKIEEILRELLEEDPHNSLVLSALLLFEQERELGAPPEHVERAVEAALRLFGDPEAEEIIEELRK
B21: il10ra_site1_sap_12_mot_HHH_b2_07579_000000275_0001_1_19_H_._HHH_b1_05644_0001_0000100003_0000001_0_0001_af2pred_0001 (protein)
chain: SSSSDERLELTLKMIKFALEEGDPEAAKRLARAAADLARKDGDEELLEEIERLLKEAEELLSSSS
B22: il10ra_site1_sap_14_mot_HHH_b1_06786_000000000_0001_1_20_H_._HHH_b1_03651_0001_0000300016_0000001_0_0001 (protein)
chain: SSSSDEAEERIVRLILRVARLFIRGDREEARKVLEEAEELAEENNDEELERAIEIAREAIDSSSS
B23: il10ra_site1_sap_23_mot_HHH_b2_00984_000000042_0001_1_20_H_._HHH_b2_05675_0001_0000200025_0000001_0_0001 (protein)
chain: SSSSDEEEEVEELLKELEELVKRNDEEEFAQVAARIMRLIYELGDPRLAEELIRILAKFLNSSSS
B24: il10ra_site1_normal_mot_HHH_b2_00230_000000227_0001_1_19_H_._HHH_b1_04853_0001_0000100025_0000001_0 (protein)
chain: SSSSDEAYELARKFIEEIVRLLREGDREEAERLAEELLELLRELGNEAATFAVEQLLRLVRSSSS
B25: il10ra_site1_normal_mot_HHH_b1_05672_af2_000000246_0001_1_19_H_._HHH_b2_08346_af2_0001_0000100008_0000001_0 (protein)
chain: SSSDEEQRIAQLLFRAVRALFNGNPEEAKKLVEEAEELARELGDEELERYIEIAKHFIEAHSSSS
B26: il10ra_site1_normal_mot_HHH_b1_06816_000000239_0001_1_19_H_._HHH_b1_05245_af2_0001_0000500032_0000001_0_af2pred_0001 (protein)
chain: SSSDEEEAEEIFEKAEELIKRLLEEGDPEEASKVLREAIELLLRLGNPHLARELSRLFIELSSSS
B27: il10ra_site1_normal_mot_HHH_b2_06142_af2_000000101_0001_1_18_H_._HHH_b2_05708_0001_0000200018_0000002_0_af2pred_dldesign_0_af2pred (protein)
chain: SSSSDLEELLRRLAQLRTQVSKEKAKELFDAMVEAHKLLQAGKPEEAKKVLEEAIAKALESSSSS
B28: il10ra_site1_sap_22_mot_HHH_b1_05185_000000011_0001_22_39_H_._HHH_b1_06411_0001_0000200014_0000002_0_0001 (protein)
chain: SSSSSEEEQELKELLEELEELLKEGDEERFLELAQRISRLALRAKDKEVMRRVDQLAIEFYSSSS
B29: il10ra_site1_sap_25_mot_HHH_b1_05056_000000217_0001_1_20_H_._HHH_b2_03638_0001_0000300027_0000001_0_0001 (protein)
chain: SSSSSEERVEELIEEAEELLERGDPREAIKVLQEALRLVYQLGNEELLQKVWELALKVANKSSSS
B30: il10ra_site1_normal_mot_HHH_b1_02997_000000220_0001_39_52_H_._HHH_b1_01446_af2_0001_0000600038_0000001_0 (protein)
chain: SSSSSDETERVIELIRQAFEIEDPEEVEELLEEARELAEEANNENARINVEYLLRILENSSSSSS
B31: il10ra_site1_normal_mot_HHH_b2_00479_000000091_0001_1_12_H_._HHH_b2_02732_0001_0000300022_0000001_0_af2pred_dldesign_0_af2pred (protein)
chain: SSSSSSEEVRKEVEELLEKLFKVNPDEALALLKKALDLAADNDDAELQARIREATRKWLESSSSS
B32: il10ra_site1_normal_mot_HHH_b1_06789_af2_000000041_0001_1_20_H_._HHH_b2_03029_0001_0000300011_0000002_0 (protein)
chain: SSSSSAEYLVRQALKAAKRLYEQGDPERAKEAIEIAENLARNANNPELEKLVEEFAEELENSSSS
B33: il10ra_site1_sap_21_mot_HHH_b1_00682_000000211_0001_1_20_H_._HHH_b2_04588_0001_0000400026_0000001_0_0001_af2pred_0001 (protein)
chain: SSSSDEEKRALHLALRAAELIQEGDEEEARKVIEELEEIVEKIGDEKLKLTVRFEKALLRSSSSS
B34: il10ra_site1_normal_mot_HHH_b2_00612_000000251_0001_1_14_H_._HHH_b2_04981_0001_0000200014_0000002_0 (protein)
chain: SSSSDEEFEEVRRLLEHASELAQEGDKEEAERLVEEAIELAREGGNQLLTESAEYLLRIIRSSSS
B35: il10ra_site1_normal_mot_HHH_b1_05357_000000034_0001_23_39_H_._HHH_b2_02453_0001_0000200006_0000001_0 (protein)
chain: SSSSDVEEELEELLEEAKRIEDRARLSHVLIRAYALATHRNDPELEEFVREEALKIFDEGSSSSS
B36: il10ra_site1_sap_33_mot_HHH_b2_07521_000000141_0001_20_37_H_._HHH_b2_01915_0001_0000700039_0000001_1_0001 (protein)
chain: SSSSSEEVEELLEQARELAEEGDFEEAAKLLLEALQIAAELQDPELLRLVWEVLHEVARLNSSSS
B37: il10ra_site1_normal_mot_HHH_b2_07521_000000141_0001_20_37_H_._HHH_b1_02137_0001_0000100002_0000001_0_af2pred_0001 (protein)
chain: SSSSDKEEEFVELAIRFAEWLAEQGDPEAAKIVLRAAKRAAELANDEELQEKIEKVLEEISSSSS

target: il10ra, Q13651; assay: yeast display titration

Apparent Kd, inactive:
B1 no binding seen, B2 no binding seen, B3 no binding seen, B4 no binding seen, B5 no binding seen, B6 no binding seen, B7 no binding seen, B8 no binding seen, B9 no binding seen, B10 no binding seen, B11 no binding seen, B12 no binding seen, B13 no binding seen, B14 no binding seen, B15 no binding seen, B16 no binding seen, B17 no binding seen, B18 no binding seen, B19 no binding seen, B20 no binding seen, B21 no binding seen, B22 no binding seen, B23 no binding seen, B24 no binding seen, B25 no binding seen, B26 no binding seen, B27 no binding seen, B28 no binding seen, B29 no binding seen, B30 no binding seen, B31 no binding seen, B32 no binding seen, B33 no binding seen, B34 no binding seen, B35 no binding seen, B36 > 2780 nM, B37 no binding seen

Source: paper PMC10163288
